Results from patent US12533341B2, “Small molecule inhibitors of voltage-gated sodium channel 1.7 and methods of using same” (Duke University, priority 2019, dated 2026).
Some results were stated once for a whole list of compounds, not compound by compound. At least one structure is not confirmed: it was looked up by name or label, or the drawing left a doubt.

Protein sequences, listed by entry. Tags and fused reporters are not part of them.
UniProt Q15858, whole entry: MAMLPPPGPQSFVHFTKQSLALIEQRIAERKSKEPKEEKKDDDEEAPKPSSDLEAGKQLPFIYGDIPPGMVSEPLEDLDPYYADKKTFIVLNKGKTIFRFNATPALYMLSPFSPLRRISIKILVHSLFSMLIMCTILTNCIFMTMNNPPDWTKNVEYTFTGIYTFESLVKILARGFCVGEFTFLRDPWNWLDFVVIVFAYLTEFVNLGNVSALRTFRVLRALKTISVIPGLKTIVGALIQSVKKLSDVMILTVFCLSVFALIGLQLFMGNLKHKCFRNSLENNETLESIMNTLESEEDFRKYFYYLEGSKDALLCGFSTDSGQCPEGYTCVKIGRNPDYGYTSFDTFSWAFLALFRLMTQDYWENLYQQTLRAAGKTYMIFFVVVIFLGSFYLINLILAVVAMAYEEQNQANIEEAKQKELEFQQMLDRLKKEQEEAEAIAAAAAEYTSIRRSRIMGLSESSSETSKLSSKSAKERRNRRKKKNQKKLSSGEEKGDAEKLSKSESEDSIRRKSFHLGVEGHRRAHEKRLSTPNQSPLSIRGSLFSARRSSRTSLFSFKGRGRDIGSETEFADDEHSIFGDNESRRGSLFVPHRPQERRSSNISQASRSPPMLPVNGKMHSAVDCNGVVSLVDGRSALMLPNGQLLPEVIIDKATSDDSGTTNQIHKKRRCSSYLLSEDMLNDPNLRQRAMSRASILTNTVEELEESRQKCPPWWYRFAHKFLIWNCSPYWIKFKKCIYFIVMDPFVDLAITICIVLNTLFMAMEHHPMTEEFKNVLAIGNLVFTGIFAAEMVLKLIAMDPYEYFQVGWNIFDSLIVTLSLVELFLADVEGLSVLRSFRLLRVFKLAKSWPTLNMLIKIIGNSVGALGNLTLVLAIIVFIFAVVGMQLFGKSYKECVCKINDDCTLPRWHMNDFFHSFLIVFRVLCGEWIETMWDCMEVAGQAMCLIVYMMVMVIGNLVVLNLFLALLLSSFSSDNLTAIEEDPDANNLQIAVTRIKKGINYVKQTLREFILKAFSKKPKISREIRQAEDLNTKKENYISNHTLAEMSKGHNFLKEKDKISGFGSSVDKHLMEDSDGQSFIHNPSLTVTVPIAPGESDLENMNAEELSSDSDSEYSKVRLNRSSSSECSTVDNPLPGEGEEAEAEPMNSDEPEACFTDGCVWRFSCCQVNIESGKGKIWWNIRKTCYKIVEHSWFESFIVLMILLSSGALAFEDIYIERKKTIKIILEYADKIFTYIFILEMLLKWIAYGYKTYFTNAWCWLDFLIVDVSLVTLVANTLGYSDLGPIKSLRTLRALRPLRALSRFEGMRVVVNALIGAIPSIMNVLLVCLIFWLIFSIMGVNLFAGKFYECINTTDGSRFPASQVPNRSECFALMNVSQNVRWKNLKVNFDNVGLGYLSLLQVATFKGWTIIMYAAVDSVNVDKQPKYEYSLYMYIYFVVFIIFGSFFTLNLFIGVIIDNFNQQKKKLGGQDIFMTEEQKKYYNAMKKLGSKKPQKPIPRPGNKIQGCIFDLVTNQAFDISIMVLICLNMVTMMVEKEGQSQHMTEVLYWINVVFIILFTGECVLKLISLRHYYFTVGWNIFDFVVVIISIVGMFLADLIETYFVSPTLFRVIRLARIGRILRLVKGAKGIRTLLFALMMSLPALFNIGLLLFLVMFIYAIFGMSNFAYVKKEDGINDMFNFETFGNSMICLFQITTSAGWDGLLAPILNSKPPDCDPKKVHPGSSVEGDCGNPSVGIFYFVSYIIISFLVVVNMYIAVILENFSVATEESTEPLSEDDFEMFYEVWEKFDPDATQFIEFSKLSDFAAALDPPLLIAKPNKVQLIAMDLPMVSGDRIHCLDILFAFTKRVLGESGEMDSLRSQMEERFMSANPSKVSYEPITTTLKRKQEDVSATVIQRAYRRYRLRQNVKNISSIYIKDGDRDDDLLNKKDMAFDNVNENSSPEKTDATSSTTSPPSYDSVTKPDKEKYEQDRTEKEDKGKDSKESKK

Molecular target: human Nav1.7 (Homo sapiens, UniProt Q15858)
Test: Whole-cell patch-clamp of sodium currents in Nav1.7-expressing HEK293 cells
Type: cell-based
Details: 10 μM, screen of compounds 1-9 (FIG. 3)
Protocol: HEK-hNav1.7 stable cell line was purchased from SB Drug Discovery (Glasgow, United Kingdom). Human embryonic kidney 293 (HEK293) cells were obtained from the ATCC and maintained at the Duke cell culture facility. Cells were cultured in high-glucose (4.5 g/L) DMEM containing 10% (v/v) FBS (Gibco) and streptomycin/penicillin. For Nav1.7-expressing HEK293 cells, an additional antibiotic, blasticidin, was included. hNav1.5 transfection was performed by Lipofectamine 2000 at 70% confluence using 2 μg cDNA. The transfected cells were cultured in the same growth medium for 48 h before biochemical or electrophysiological studies.
Whole-cell patch-clamp recordings were conducted at room temperature. Patch pipettes pulled from borosilicate capillaries (World Precision Instruments, Inc., Sarasota, FL) were used to record transient Na currents with an Axopatch-200B amplifier with a Digidata 1440A (Axon Instruments, Sunnyvale CA). The resistance was set to 3-4 MΩ when filled with pipette solution. The pipette solution contained (in mmol/L): CsCl 130, NaCl 9, MgCl2 1, EGTA 10, HEPES 10, adjusted to pH 7.3 with CsOH. The external solution for recording transient Na^+ currents contained (in mmol/L): NaCl 131, TEACl 10, CsCl 10, CaCl2) 1, MgCl2 2, CdCl2 0.3, 4-aminopyridine 3, HEPES 10, glucose 10, adjusted to pH 7.4 with NaOH. […]
The effects of the 9 selected compounds on Nav1.7 channel activities were tested using patch-clamp recordings on human Nav1.7 expressing HEK293 cells (FIG. 3, FIG. 4). In each cell, sodium currents were recorded for 13 min, and candidate inhibitors (10 μM) were incubated for 2 min after 2 min baseline recording (FIG. 3). […] Sodium currents were recorded at equal intervals (every 20 seconds, 40 recordings per compound per cell). Data was analyzed with a two-way repeated measures ANOVA, followed by a post-hoc test of the last timepoint Bonferroni-corrected for 9 pairwise comparisons (each compound was compared with control). […]
For FIG. 4C, sample size was n=5 to 7 cells per group. […] Sodium currents were recorded every 20 seconds.

Row | Compound | difference in relative current from the control group at the last measurement
1 | COc1ccc(C(=O)N(CC(=O)Nc2nc(-c3ccc(Cl)cc3)cn2-c2ccc(OC)c(OC)c2)C2CC2)cc1 [Compound 2] | not significantly different from control
2 | O=C(CC(c1cccc(Oc2ccccc2)c1)c1cn(Cc2ccccc2)c2ccccc12)N1CCN(c2ccccc2Cl)CC1 (stereo not drawn) [Compound 4] | not significantly different from control
3 | O=C(CC(c1cccc(OCc2ccccc2)c1)c1cn(Cc2ccccc2)c2ccccc12)N1CCN(C(c2ccccc2)c2ccccc2)CC1 (stereo not drawn) [Compound 6] | not significantly different from control
